No constants are given. Whether binding was seen depends on the method and setting. In cells and extracts the contact can be indirect. Binding calls can cover weak binding; strength is not graded here. Tags and fused reporters may be left off the sequences shown.
Assays:
[1] = molecular target: T1, ZCCHC3-FL (Zinc Finger CCHC-Type Containing 3 with C-terminal FLAG epitope tag) (human) (UniProt Q9NUD5); experiment: co-IP; as a1, lysates treated with 25 μg/ml DNase-free RNase and 25 μg/ml RNaseA in the absence of RNase inhibitors
T1 sequence: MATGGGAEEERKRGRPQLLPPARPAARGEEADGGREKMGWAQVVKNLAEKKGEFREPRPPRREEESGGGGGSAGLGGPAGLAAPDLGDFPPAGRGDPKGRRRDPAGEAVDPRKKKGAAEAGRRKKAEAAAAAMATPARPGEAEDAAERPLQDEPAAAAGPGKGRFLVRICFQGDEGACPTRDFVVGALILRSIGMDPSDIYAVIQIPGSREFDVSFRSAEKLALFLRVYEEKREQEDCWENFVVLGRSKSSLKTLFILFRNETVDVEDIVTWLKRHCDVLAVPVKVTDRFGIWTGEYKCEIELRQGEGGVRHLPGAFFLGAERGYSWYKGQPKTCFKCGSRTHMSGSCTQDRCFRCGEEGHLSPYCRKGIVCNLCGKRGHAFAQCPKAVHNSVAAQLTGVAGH

[2] = molecular target: T1, ZCCHC3-FL (Zinc Finger CCHC-Type Containing 3 with C-terminal FLAG epitope tag) (human); experiment: co-IP; whole cell lysates of transfected HEK 293T cells; FLAG-tagged bait on α-FLAG-M2 magnetic beads, eluted with 3XFLAG peptide; Western blot; no RNase

## V5-TEV-DIS3L (isoform 2) (from UniProt Q8TF46-4)
[1]
  binding: binds weakly
[2]
  binding: binds weakly

From article PMC10351740, “ZCCHC3 is a stress granule zinc knuckle protein that strongly suppresses LINE-1 retrotransposition” (PLOS Genetics, 2023)
